PubChem BioAssay AID493246, Drosophila RNAi Screening Center | 2011

Assay: 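Genome-wide search for dsRNAs that reduce cell number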 (primary screen)
Cell system: Drosophila Kc and S2R+ cells
Knock-down reagent: long dsRNA against Drosophila genes
Measurement: 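Cell number per well after knock-down, printed as raw plate values; calls were based on per-plate z-scores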
Scale: Kc cell number and S2R+ cell number: higher = more cells remaining
Active means: 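Counted as a hit if cell number falls by a z-score of at least 3 within its plate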
In all, the deposit lists about 21,000 reagents; below is an unselected part of those that have a named target and a result. Over the whole deposit, 429 (2%) got an active call. 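Values are raw and not normalised between plates; calls rest on per-plate z-scores that were not deposited.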 Reagent sequences are not shown. The record does not give: the amount of reagent, the time to read-out.

no.	target gene	amplicon	Kc cell number, rep 1	Kc cell number, rep 2	S2R+ cell number, rep 1	S2R+ cell number, rep 2	Call
1	CG18371	DRSC06733	1.58e6	1.64e6	1.30e6	1.47e6	inactive
2	Nup75	DRSC06947	1.25e6	1.18e6	9.50e5	1.08e6	inactive
3	Dhx15	DRSC06036	1.44e6	1.56e6	1.16e6	1.24e6	inactive
4	CG16972	DRSC02550	1.55e6	1.64e6	1.04e6	1.01e6	inactive
5	CG34159	DRSC02885	1.14e6	1.35e6	9.14e5	1.02e6	inactive
6	Jhbp12	DRSC14621	1.63e6	1.69e6	1.10e6	1.20e6	inactive
7	dpa	DRSC07604	1.64e6	1.66e6	1.36e6	1.56e6	inactive
8	Plc21C	DRSC00773	1.37e6	1.52e6	1.09e6	1.02e6	inactive
9	koi	DRSC04980	1.54e6	1.67e6	1.26e6	1.34e6	inactive
10	sphe	DRSC20203	1.58e6	1.65e6	1.02e6	1.23e6	inactive
11	Su(var)2-HP2	DRSC06204	1.41e6	1.45e6	1.21e6	1.32e6	inactive
12	CG16852	DRSC01876	1.49e6	1.54e6	1.24e6	1.36e6	inactive
13	mib2	DRSC02623	1.05e6	1.10e6	1.17e6	1.19e6	inactive
14	CG12496	DRSC18602	1.49e6	1.54e6	9.99e5	1.10e6	inactive
15	AANATL2	DRSC03227	1.62e6	1.60e6	1.24e6	1.43e6	inactive
16	CG14130	DRSC10134	1.58e6	1.76e6	1.23e6	1.32e6	inactive

Entries above whose target name starts with S or s:
target gene	amplicon	Kc cell number, rep 1	Kc cell number, rep 2	S2R+ cell number, rep 1	S2R+ cell number, rep 2	Call
sphe	DRSC20203	1.58e6	1.65e6	1.02e6	1.23e6	inactive
Su(var)2-HP2	DRSC06204	1.41e6	1.45e6	1.21e6	1.32e6	inactive

Continued.
no.	target gene	amplicon	Kc cell number, rep 1	Kc cell number, rep 2	S2R+ cell number, rep 1	S2R+ cell number, rep 2	Call
17	mRpL38	DRSC19734	1.35e6	1.39e6	9.28e5	1.01e6	inactive
18	CG8461	DRSC16424	1.84e6	1.90e6	1.45e6	1.48e6	inactive
19	Fit2	DRSC10908	1.46e6	1.45e6	1.26e6	1.27e6	inactive
20	mRpL10	DRSC00312	9.32e5	1.52e6	9.84e5	9.80e5	inactive
21	Nnk	DRSC15274	1.42e6	1.50e6	1.08e6	1.12e6	inactive
22	slp1	DRSC00835	1.38e6	1.39e6	1.01e6	1.04e6	inactive
23	trc	DRSC11406	1.55e6	2.06e6	1.25e6	1.43e6	inactive
24	Trhn	DRSC08621	1.36e6	1.38e6	1.17e6	1.08e6	inactive
